Experimental data published in PubChem BioAssay AID504834 (National Center for Advancing Translational Sciences (NCATS), 2011).
The campaign covered roughly 320,000 compounds. About 22,000 (6.9%) were called active. Inconclusive means that the source gave no clear call. Such entries were picked first, then a sample of the others. Calls come from the whole dose curve; as a rule, active = well fitted inhibition curve with a large enough effect; inconclusive = small, poorly fitted or top-dose-only effect, or another doubt; inactive = no such curve, though single readings can be large or run the other way. Potencies of inconclusive entries are doubtful fits and often do not repeat.

Assay: Primary qHTS for delayed death inhibitors of the malarial parasite plastid, 96 hour incubation
Details: P. falciparum luciferase reporter growth; series mostly up to 28.7 µM; activity change, negative = inhibition: at the top concentration
Procedure, shortened: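 Infected RBCs, 2% Hct / 0.05% parasitemia final; luciferase-reporter P. falciparum; cpd 96 h, 37 C, 5% CO2; luciferase detection reagent; luminescence.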
% is set by controls: 0 for no effect and ±100 for the full control effect; potency is the fitted concentration of half-maximal effect.

Structure (SMILES) | Potency | activity change, negative = inhibition
CCOc1ccc(NC(=O)Nc2nc3ccc(S(C)(=O)=O)cc3s2)cc1 | inconclusive: 16.5 µM [inhibitor, single point] | –
C[C@@H](C(=O)NCc1ccc(S(C)(=O)=O)cc1)[C@@H]1C[C@@]1(C)[C@@H](NC(=O)OCc1ccccc1)c1ccccc1 | inconclusive: 10.4 µM [inhibitor, single point] | –
COc1cc(NC(=O)c2onc(C)c2Cl)c(OC)cc1Cl | – | inactive: -24.4%
Cc1ncoc1C(=O)N1CCCC(C(=O)c2cccc(OC(C)C)c2)C1 (stereo not given) | – | inactive: 9.44%
CCOc1ccc(OCC)c(NC(=O)C2CCCN(S(=O)(=O)c3cnc[nH]3)C2)c1 (stereo not given) | active: 4.65 µM | –
CCCCC1(Cc2ccc([N+](=O)[O-])cc2)C(=O)N(c2ccccc2)N(c2ccccc2)C1=O | inconclusive: 11.7 µM [inhibitor, partial curve, poor fit] | –
CC(C)NC(=O)C1CCN(C(=O)c2ccc(-c3ccccc3)cc2)CC1 | – | inactive: 30.2%
COc1cc(OC)cc(C(=O)Nc2ccc(S(=O)(=O)N3CCOCC3)cc2)c1 | – | inactive: 2.63%
CCN(c1ccccc1)S(=O)(=O)c1ccc(C(=O)Nc2cc(C)ccn2)cc1 | inconclusive: 4.15 µM [inhibitor, single point] | –
COc1cc(/C=N/N2CCN(c3ccccc3OC)CC2)ccc1O | – | inactive: 3.36%
Cc1ccccc1NC(=O)CN1CCN(C(=O)c2ccco2)CC1 | – | inactive: 0.929%
N/C(=N\OC(=O)c1ccccc1Br)c1ccc([N+](=O)[O-])cc1 | – | inactive: 252%
O=C(COc1ccc(Cl)cc1)N(Cc1cccs1)C1CCS(=O)(=O)C1 (stereo not given) | inconclusive: 13.1 µM [inhibitor, partial curve, poor fit] | –
Cc1occc1C(=O)Nc1ccc2ccccc2c1 | inconclusive: 18.5 µM [inhibitor, single point] | –
O=C1CCC/C(=N/Nc2ccc(Cl)cc2)C1 | active: 11.7 µM | –
Cc1cccc(-n2nnnc2SCC(=O)N(CC(C)C)c2c(N)n(CC(C)C)c(=O)[nH]c2=O)c1 | inconclusive: 13.1 µM [inhibitor, single point] | –
Cc1ccc(NC(=O)C2CCN(S(=O)(=O)c3c(C)noc3C)CC2)cc1C | inconclusive: 18.5 µM [inhibitor, single point] | –
COc1ccc(N(C(=O)Cc2cccs2)C(C(=O)NC2CCCCC2)c2cccn2C)cc1 (stereo not given) | inconclusive: 16.5 µM [inhibitor, single point] | –
COC(=O)Nc1ccc(S(=O)(=O)NC2CCS(=O)(=O)C2)cc1 (stereo not given) | inconclusive: 0.0029 µM [inhibitor, full curve, poor fit] | –
Cc1ccc(OCCCC(=O)N2CCN(S(=O)(=O)c3cccc(F)c3)CC2)cc1 | inconclusive: 0.522 µM [inhibitor, full curve, poor fit] | –

Five entries out of the list, sorted by molecular weight, low to high.
Structure (SMILES) | Potency | activity change, negative = inhibition
O=C1CCC/C(=N/Nc2ccc(Cl)cc2)C1 | active: 11.7 µM | –
COc1cc(NC(=O)c2onc(C)c2Cl)c(OC)cc1Cl | – | inactive: -24.4%
N/C(=N\OC(=O)c1ccccc1Br)c1ccc([N+](=O)[O-])cc1 | – | inactive: 252%
Cc1ccc(NC(=O)C2CCN(S(=O)(=O)c3c(C)noc3C)CC2)cc1C | inconclusive: 18.5 µM [inhibitor, single point] | –
CCOc1ccc(OCC)c(NC(=O)C2CCCN(S(=O)(=O)c3cnc[nH]3)C2)c1 (stereo not given) | active: 4.65 µM | –
